Reference: PMC6692130, “PHLPP1 counter-regulates STAT1-mediated inflammatory signaling” (eLife, 2019)
No constants are given. Whether binding was seen depends on the method and setting. Binding seen in cells or lysates may run through a third protein. Some binding calls cover weakened binding; strength is not graded here. For part of these data: Tags and fused reporters may be left off the sequences shown.

Chains of the proteins cited; added tags and fusions are not shown.
UniProt P42224: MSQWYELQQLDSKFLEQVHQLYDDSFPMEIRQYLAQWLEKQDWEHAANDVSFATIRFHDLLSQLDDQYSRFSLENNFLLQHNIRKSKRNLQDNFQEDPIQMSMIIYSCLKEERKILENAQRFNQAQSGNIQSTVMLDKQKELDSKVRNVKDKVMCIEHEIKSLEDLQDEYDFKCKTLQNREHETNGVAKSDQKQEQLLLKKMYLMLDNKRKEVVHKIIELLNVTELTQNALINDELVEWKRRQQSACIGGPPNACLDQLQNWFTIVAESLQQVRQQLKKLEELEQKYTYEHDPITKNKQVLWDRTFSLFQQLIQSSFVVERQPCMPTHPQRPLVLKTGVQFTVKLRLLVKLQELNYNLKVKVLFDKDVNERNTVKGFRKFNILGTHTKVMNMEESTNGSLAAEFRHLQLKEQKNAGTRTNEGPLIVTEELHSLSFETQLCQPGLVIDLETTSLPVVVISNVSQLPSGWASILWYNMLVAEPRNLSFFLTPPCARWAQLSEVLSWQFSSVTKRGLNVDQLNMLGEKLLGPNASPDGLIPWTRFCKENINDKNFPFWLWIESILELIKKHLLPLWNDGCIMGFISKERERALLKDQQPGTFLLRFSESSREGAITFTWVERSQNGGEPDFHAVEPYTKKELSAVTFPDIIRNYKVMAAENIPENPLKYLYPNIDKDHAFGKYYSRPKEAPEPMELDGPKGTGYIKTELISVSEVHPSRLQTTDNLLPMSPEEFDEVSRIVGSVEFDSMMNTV

Key:
Test in all cases: co-IP; HEK-293T cells transfected with HA-tagged PHLPP1 constructs and GFP-STAT1; detergent-solubilized lysates incubated with anti-HA antibody at 4°C overnight, protein A/G agarose 1 hr at 4°C, washed three times in lysis buffer with 0.3 M NaCl and 0.1% Triton X 100; blot probed with GFP antibody; GFP-STAT1 IP divided by HA IP, normalized to HA-NTE IP, three independent experiments
[1] = molecular target: T1, HA-tagged PHLPP1 N-terminal extension (PHLPP1 NTE), residues 1-512 (UniProt O60346)
T1 sequence: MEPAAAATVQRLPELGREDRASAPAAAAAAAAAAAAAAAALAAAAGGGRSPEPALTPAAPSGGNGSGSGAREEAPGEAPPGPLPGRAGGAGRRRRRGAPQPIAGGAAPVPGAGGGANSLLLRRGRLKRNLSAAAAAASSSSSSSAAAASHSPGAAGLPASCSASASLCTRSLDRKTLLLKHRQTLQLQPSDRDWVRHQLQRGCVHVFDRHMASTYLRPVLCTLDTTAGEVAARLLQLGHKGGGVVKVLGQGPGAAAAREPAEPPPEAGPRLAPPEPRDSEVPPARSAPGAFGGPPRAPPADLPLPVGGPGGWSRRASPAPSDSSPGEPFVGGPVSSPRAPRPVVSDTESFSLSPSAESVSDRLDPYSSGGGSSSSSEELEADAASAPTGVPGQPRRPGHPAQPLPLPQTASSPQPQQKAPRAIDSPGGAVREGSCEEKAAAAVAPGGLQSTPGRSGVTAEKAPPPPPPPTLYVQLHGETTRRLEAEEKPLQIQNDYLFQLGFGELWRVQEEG

[2] = molecular target: HA-tagged full-length PHLPP1 (UniProt O60346)
[3] = molecular target: T2, PHLPP1 with the NTE deleted (HA-PHLPP1 ΔNTE), residues 513-1717 (UniProt O60346)
T2 sequence: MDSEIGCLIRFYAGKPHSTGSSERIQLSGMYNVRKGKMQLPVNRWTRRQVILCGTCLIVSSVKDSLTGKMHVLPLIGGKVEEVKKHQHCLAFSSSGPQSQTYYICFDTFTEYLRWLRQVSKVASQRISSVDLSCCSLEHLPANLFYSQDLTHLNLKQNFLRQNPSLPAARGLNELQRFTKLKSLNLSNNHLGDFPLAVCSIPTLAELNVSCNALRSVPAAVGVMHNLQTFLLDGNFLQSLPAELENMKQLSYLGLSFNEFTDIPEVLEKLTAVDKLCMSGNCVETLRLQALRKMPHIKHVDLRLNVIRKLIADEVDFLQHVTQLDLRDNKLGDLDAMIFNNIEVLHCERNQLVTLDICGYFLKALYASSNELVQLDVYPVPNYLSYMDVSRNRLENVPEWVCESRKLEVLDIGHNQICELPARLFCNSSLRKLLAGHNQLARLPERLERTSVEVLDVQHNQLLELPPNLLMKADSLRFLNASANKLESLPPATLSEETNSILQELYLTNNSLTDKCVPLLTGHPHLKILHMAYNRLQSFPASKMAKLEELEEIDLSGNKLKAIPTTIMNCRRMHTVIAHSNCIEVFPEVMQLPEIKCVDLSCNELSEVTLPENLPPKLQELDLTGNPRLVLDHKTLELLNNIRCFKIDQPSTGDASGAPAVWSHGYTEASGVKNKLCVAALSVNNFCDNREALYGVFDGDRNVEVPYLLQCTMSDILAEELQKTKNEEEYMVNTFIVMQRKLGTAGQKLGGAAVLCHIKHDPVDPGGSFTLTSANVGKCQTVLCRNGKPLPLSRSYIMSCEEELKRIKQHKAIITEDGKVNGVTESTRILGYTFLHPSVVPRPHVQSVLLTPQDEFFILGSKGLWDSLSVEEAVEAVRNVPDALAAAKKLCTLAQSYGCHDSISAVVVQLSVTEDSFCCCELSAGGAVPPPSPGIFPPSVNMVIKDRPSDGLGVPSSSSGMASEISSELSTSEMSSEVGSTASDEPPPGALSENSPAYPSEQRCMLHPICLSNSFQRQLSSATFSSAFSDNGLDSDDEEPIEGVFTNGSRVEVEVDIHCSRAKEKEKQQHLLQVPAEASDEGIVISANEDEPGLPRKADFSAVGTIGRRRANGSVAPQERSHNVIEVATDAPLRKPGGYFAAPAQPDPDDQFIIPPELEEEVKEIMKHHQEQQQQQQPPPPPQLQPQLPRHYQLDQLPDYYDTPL

binding [1]: binds
binding [2]: binds
binding [3]: binds weakly
Substance: GFP-STAT1 (from UniProt P42224 1-750)
